According to PMC5338267:
Results are given in words; binding and its absence hold for the method and conditions named. Binding seen in cells or lysates may run through a third protein. Some results given as binding are weak or reduced against the parent protein; the word gives no strength.

Sequences of proteins named here, by UniProt entry; tags and fusion partners are left off.
UniProt P17931: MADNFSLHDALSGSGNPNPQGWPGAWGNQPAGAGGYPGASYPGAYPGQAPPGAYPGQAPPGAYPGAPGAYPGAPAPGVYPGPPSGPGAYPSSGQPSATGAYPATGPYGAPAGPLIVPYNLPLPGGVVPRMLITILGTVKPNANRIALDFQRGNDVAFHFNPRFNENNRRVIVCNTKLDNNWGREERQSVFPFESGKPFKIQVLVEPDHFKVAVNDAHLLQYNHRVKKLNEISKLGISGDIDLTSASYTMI
UniProt P05198: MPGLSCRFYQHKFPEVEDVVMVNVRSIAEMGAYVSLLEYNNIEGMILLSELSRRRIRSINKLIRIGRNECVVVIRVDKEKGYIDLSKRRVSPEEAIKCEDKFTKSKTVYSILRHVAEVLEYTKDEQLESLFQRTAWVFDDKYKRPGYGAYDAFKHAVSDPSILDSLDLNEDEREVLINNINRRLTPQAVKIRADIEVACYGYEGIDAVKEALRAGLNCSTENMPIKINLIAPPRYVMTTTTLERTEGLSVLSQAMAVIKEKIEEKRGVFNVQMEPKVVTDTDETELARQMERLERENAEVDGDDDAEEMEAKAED
UniProt Q13283: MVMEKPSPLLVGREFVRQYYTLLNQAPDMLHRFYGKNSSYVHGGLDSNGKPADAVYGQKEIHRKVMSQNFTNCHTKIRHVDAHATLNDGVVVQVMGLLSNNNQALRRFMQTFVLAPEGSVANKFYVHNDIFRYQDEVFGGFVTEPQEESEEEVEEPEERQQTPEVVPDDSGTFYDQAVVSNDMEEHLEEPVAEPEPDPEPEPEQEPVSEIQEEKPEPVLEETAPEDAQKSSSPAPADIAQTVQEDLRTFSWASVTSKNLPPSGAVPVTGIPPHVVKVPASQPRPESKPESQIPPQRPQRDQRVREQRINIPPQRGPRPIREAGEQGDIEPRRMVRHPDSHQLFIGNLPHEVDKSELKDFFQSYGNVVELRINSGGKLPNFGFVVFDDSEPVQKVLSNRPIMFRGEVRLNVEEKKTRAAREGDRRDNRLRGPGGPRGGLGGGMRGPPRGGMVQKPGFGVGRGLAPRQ

Molecular target: Galectin-3 (human (endogenous in CAPAN-1-derived Sc cells)) (UniProt P17931)
Test: proximity ligation; Duolink In Situ; cells fixed with 4% PFA and permeabilised with 0.2% saponin; primary antibodies overnight at RT; spots counted per cell; Sc cells in basal state, treated with nocodazole, or after heat stress (42 °C, 30 min)

binding	Substance
binds weakly	eIF2α (from UniProt P05198 1-315)
binds weakly	G3BP1 (from UniProt Q13283 1-466)
